Assay results reported in the supplement of paper PMC10032668.
The other results are listed elsewhere or left out. Only hits are listed; about a third recur on repeated control peptides.

By UniProt entry, the sequences of proteins in these tests, tags left out.
CHMP2B, Q9UQN3, UniProt Q9UQN3, whole entry: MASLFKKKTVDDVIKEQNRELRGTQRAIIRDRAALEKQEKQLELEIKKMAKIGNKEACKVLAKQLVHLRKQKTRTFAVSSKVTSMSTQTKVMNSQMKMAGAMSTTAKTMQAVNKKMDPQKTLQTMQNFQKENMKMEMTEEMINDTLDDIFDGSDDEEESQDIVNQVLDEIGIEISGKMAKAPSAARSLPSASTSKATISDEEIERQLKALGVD
DYNLRB1, Q9NP97, UniProt Q9NP97, whole entry: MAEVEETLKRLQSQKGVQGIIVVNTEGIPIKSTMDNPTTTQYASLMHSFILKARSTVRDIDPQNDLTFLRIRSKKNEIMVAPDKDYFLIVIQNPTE
ELAVL1, Q15717, UniProt Q15717, whole entry: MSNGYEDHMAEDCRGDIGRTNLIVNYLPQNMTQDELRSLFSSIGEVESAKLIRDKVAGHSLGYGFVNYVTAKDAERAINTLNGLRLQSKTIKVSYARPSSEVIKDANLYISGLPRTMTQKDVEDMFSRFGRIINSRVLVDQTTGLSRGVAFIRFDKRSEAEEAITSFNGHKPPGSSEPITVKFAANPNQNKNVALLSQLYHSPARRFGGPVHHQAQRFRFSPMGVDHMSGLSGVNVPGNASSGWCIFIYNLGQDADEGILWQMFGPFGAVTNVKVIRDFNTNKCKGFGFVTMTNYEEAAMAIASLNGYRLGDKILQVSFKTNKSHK
PHAX, Q9H814, UniProt Q9H814, whole entry: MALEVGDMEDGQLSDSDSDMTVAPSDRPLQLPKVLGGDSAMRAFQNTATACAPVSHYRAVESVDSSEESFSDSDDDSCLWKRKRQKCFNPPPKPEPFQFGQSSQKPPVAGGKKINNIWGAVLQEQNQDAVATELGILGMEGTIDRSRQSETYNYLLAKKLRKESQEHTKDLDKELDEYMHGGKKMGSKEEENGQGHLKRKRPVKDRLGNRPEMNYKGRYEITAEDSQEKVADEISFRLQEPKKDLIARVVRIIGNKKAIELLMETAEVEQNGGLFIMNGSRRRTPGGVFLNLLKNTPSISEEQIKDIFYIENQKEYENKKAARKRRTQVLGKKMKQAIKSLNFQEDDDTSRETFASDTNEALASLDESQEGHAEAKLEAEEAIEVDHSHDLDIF
SMARCC2, Q8TAQ2, UniProt Q8TAQ2, whole entry: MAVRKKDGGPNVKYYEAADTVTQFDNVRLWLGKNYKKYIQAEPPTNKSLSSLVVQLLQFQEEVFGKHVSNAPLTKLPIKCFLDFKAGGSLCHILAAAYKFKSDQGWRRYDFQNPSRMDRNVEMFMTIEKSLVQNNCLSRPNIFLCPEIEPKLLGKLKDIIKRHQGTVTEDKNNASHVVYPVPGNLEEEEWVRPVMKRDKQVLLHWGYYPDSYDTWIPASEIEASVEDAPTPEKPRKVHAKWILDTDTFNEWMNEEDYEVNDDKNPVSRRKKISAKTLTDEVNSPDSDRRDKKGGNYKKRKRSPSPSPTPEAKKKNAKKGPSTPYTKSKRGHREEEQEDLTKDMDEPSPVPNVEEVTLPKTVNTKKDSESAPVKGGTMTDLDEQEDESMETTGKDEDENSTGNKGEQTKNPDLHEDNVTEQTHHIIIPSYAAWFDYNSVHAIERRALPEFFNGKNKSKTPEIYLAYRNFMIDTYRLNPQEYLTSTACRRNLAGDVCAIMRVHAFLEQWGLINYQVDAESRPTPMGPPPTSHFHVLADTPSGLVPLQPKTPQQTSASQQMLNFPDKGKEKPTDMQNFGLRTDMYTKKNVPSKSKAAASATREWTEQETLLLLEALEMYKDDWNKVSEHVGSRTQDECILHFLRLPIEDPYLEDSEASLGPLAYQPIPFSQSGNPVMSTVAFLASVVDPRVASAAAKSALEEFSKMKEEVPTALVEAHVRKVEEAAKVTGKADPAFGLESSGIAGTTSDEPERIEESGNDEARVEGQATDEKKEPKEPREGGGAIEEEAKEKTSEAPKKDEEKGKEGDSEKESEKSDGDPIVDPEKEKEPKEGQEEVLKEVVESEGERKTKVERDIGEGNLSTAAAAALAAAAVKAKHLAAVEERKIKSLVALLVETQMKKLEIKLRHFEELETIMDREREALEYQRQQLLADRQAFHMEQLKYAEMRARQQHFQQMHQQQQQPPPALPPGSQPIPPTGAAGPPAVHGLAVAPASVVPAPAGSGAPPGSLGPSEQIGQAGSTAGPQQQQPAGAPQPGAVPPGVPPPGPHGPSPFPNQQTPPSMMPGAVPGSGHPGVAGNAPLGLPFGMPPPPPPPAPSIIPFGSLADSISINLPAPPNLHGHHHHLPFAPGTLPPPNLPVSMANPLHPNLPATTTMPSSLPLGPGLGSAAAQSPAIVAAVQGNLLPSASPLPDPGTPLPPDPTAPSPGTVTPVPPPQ

Legend:
Assay in all cases: PRISMA enrichment of interactor (LFQ) in peptide spot vs all other peptide spots (log2 fold change); higher = stronger / more specific binding of the interactor to the peptide
[1] = molecular target: ACLY, P53396
Description: (§1)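 PRISMA: 15-aa overlapping tiles (offset 8 aa) of 60 microproteins, plus SOS1/GLUT1 control peptides, were spot-synthesized on cellulose membranes in triplicate. Membranes were incubated with benzonase-treated HEK293T lysate, and bound proteins were identified by LC-MS/MS with LFQ. Enrichment is the log2 fold change of each protein in one spot versus all other spots. Only interactors passing the significance cutoff are listed.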

[2] = molecular target: ATP5ME, P56385
Description: as §1

[3] = molecular target: CDK2, P24941
Description: as §1

[4] = molecular target: CHMP2B, Q9UQN3
Description: as §1

[5] = molecular target: DUSP11, O75319
Description: as §1

[6] = molecular target: DYNLRB1, Q9NP97
Description: as §1

[7] = molecular target: ELAVL1, Q15717
Description: as §1

[8] = molecular target: FAM107B, Q9H098
Description: as §1

[9] = molecular target: HLTF, Q14527
Description: as §1

[10] = molecular target: MACF1
Description: as §1

[11] = molecular target: NOL9, Q5SY16
Description: as §1

[12] = molecular target: NUP160, Q12769
Description: as §1

[13] = molecular target: RAB11A, P62491
Description: as §1

[14] = substrate: SSB, P05455
Description: as §1

[15] = molecular target: TOMM5, Q8N4H5
Description: as §1

[16] = molecular target: ACO2, Q99798
Description: as §1

[17] = molecular target: ATP5MG, O75964
Description: as §1

[18] = molecular target: BZW2, Q9Y6E2
Description: as §1

[19] = molecular target: CLTA, P09496
Description: as §1

[20] = molecular target: CLTB, P09497
Description: as §1

[21] = molecular target: DCAF1, Q9Y4B6
Description: as §1

[22] = molecular target: FOCAD, Q5VW36
Description: as §1

[23] = molecular target: GIGYF2, Q6Y7W6
Description: as §1

[24] = molecular target: HNRNPR, O43390
Description: as §1

[25] = molecular target: IVD, P26440
Description: as §1

[26] = molecular target: NCAPD3, P42695
Description: as §1

[27] = molecular target: PHAX, Q9H814
Description: as §1

[28] = molecular target: SMARCC2, Q8TAQ2
Description: as §1

[29] = molecular target: SUGP2, Q8IX01
Description: as §1

[30] = molecular target: UBA1, P22314
Description: as §1

[31] = molecular target: WTAP, Q15007
Description: as §1

| Binder | PRISMA enrichment of interactor (log2) [1] | PRISMA enrichment of interactor (log2) [2] | PRISMA enrichment of interactor (log2) [3] | PRISMA enrichment of interactor (log2) [4] | PRISMA enrichment of interactor (log2) [5] | PRISMA enrichment of interactor (log2) [6] | PRISMA enrichment of interactor (log2) [7] | PRISMA enrichment of interactor (log2) [8] | PRISMA enrichment of interactor (log2) [9] | PRISMA enrichment of interactor (log2) [10] | PRISMA enrichment of interactor (log2) [11] | PRISMA enrichment of interactor (log2) [12] | PRISMA enrichment of interactor (log2) [13] | PRISMA enrichment of interactor (log2) [14] | PRISMA enrichment of interactor (log2) [15] | PRISMA enrichment of interactor (log2) [16] | PRISMA enrichment of interactor (log2) [17] | PRISMA enrichment of interactor (log2) [18] | PRISMA enrichment of interactor (log2) [19] | PRISMA enrichment of interactor (log2) [20] | PRISMA enrichment of interactor (log2) [21] | PRISMA enrichment of interactor (log2) [22] | PRISMA enrichment of interactor (log2) [23] | PRISMA enrichment of interactor (log2) [24] | PRISMA enrichment of interactor (log2) [25] | PRISMA enrichment of interactor (log2) [26] | PRISMA enrichment of interactor (log2) [27] | PRISMA enrichment of interactor (log2) [28] | PRISMA enrichment of interactor (log2) [29] | PRISMA enrichment of interactor (log2) [30] | PRISMA enrichment of interactor (log2) [31] |
| --- | --- | --- | --- | --- | --- | --- | --- | --- | --- | --- | --- | --- | --- | --- | --- | --- | --- | --- | --- | --- | --- | --- | --- | --- | --- | --- | --- | --- | --- | --- | --- |
| EEAKEKKDLLKMCTS [PRR34-AS1] | 6.46 | 5.16 | 4.38 | 5.52 | 4.75 | 4.61 | 4.99 | 4.57 | 5.3 | 5.17 | 5.37 | 4.57 | 8.32 | 5.91 | 5.47 | – | – | – | – | – | – | – | – | – | – | – | – | – | – | – | – |
| LLLDDPGHRPASTYP [LINC01128] | – | 5.26 | – | – | – | – | – | – | – | – | – | – | – | – | – | 4.54 | 5.35 | 4.81 | 5.86 | 5.1 | 6.12 | 3.93 | 5.25 | 4.85 | 7.14 | 3.99 | 4.78 | 5.33 | 5.03 | 5.27 | 4.31 |
